# Measurements from PubChem BioAssay AID2685 (National Center for Advancing Translational Sciences (NCATS), 2010).
# Some of the results follow. Further columns of the screen follow, without active or inactive calls. Most of these compounds were active or inconclusive in the main read-out, so they are no random draw. Potencies come from curve fits of mixed quality, noted in brackets.
# Assay: qHTS Assay for Lipid Storage Modulators in Drosophila S3 Cells;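 on cell number change: cells counted by Cell Tracker Red CMTPX staining in the red channel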
# Conditions: BODIPY lipid droplet fluorescence, 18-24 h; for cell number change: measured here: cell count max response, cells fed with added oleic acid
# How it was run: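 Laser-scanning cytometry quantifies lipid droplet accumulation (500–530 nm total intensity; droplet/cell object ratio) in oleic acid-fed (400 uM added) Drosophila S3 cells treated with a concentration series. 20 uM Triacsin C defined 100% inhibition.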
# [1] = measured here: lipid fluorescence (Fed channel) AC50, cells fed with added oleic acid
# [2] = measured here: cell number channel AC50, cells fed with added oleic acid
SMILES,cell number change,AC50 [1],AC50 [2]
CSc1ccccc1OCc1cc(C(=O)N(C)Cc2ccncn2)no1,4.92%,"6.51 µM [rising, single point]",
O=C(CN1CCOCC1)Nc1cccc(C(=O)Nc2cccc(C(F)(F)F)c2)c1,,,"2.06 µM [rising, partial curve]"
CC1CCN(S(=O)(=O)c2cccc(S(=O)(=O)N3CCCC3)c2)CC1,12.8%,,
COc1ccc(C2CC(=O)c3cnc(NC(=O)c4cccc(OC)c4)nc3C2)cc1 (stereo not drawn),,"7.31 µM [rising, partial curve]",
COc1ccccc1CCC(=O)NC1CCCN(c2ccc(C(F)(F)F)cn2)C1 (stereo not drawn),93.4%,,"29.1 µM [rising, single point]"
CCOC(=O)C1(CCOc2ccccc2)CCN(Cc2cccc(OCCO)c2)CC1,22.3%,"29.1 µM [rising, single point]",
CCN(CC)S(=O)(=O)c1cccc(NC(=O)CN(C)Cc2cccc(OC)c2)c1,-19.5%,,
CC1CC(C)CN(C(=O)COC(=O)c2ccc(Cl)nc2)C1 (stereo not drawn),-28.8%,"0.13 µM [falling, full curve]",
NC[C@H](Cc1ccccc1)NCCCCC1CCCCC1,-41.1%,"0.0058 µM [rising, full curve, poor fit]","25.9 µM [falling, single point]"
O=C(O)CCNc1nc(C(F)(F)F)nc2ccccc12,-42.3%,,
N#Cc1ccc(OC(=O)C2CCN(C3=NS(=O)(=O)c4ccccc43)CC2)cc1,3.31%,"6.51 µM [falling, single point]","6.51 µM [falling, single point]"
COc1ccc(NC(=O)CSc2nc(=O)n(CCN3CCOCC3)c3c2CCC3)cc1,32.6%,"9.2 µM [rising, partial curve, poor fit]",
CCOC(=O)C(c1ccccc1)N1CCN(c2ccc(OC)cc2)CC1 (stereo not drawn),41.7%,,"0.651 µM [rising, full curve]"
CCN1CCN(C2=C(NS(=O)(=O)c3ccc(C)cc3)C(=O)c3ccccc3C2=O)CC1,-17.2%,"4.61 µM [falling, single point]",
CCOC(=O)c1c(C)[nH]c(C(=O)COC(=O)c2cnccn2)c1C,-12.1%,"29.1 µM [rising, single point]",
C=CC(C)(C)c1cc2cc3ccoc3cc2oc1=O,-34.1%,"16.4 µM [falling, single point]","20.6 µM [falling, single point]"
CSc1ccccc1NC(=O)c1ccc(C)o1,35.1%,"0.092 µM [rising, full curve, poor fit]","18.4 µM [rising, single point]"
COc1cc(S(=O)(=O)NCC2COCCO2)ccc1-n1cnnn1 (stereo not drawn),-11.6%,"5.8 µM [rising, full curve, poor fit]",
O=C(NOC(=O)c1ccccc1F)c1ccc(OC(F)F)cc1,,"0.116 µM [rising, partial curve, poor fit]",

# 3 entries already listed, ordered by formula weight, high to low.
SMILES,cell number change,AC50 [1],AC50 [2]
COc1ccccc1CCC(=O)NC1CCCN(c2ccc(C(F)(F)F)cn2)C1 (stereo not drawn),93.4%,,"29.1 µM [rising, single point]"
O=C(NOC(=O)c1ccccc1F)c1ccc(OC(F)F)cc1,,"0.116 µM [rising, partial curve, poor fit]",
NC[C@H](Cc1ccccc1)NCCCCC1CCCCC1,-41.1%,"0.0058 µM [rising, full curve, poor fit]","25.9 µM [falling, single point]"

# Later entries:

SMILES,cell number change,AC50 [1],AC50 [2]
CCN1C(C(=O)c2ccccc2)=C(Nc2ccccc2C)c2ccccc2S1(=O)=O,-13.7%,"0.731 µM [falling, partial curve, poor fit]",
C=CCN1CN(S(=O)(=O)c2cccs2)c2nc3ccccc3nc21,15.7%,"1.3 µM [rising, partial curve]",
NC(=O)C1CC(=O)N(c2ccc(OCC(=O)Nc3cccc(C(F)(F)F)c3)cc2)C1 (stereo not drawn),21.4%,"0.651 µM [falling, single point]",
COc1cc(/C=N/NC(=O)Cc2nnc(N)s2)cc(OC)c1OC,-16.7%,"29.1 µM [falling, single point]",
CCCCn1c(N)c(N(CC(C)C)C(=O)C(C)SCc2nc3sc(C)c(C)c3c(=O)[nH]2)c(=O)[nH]c1=O (stereo not drawn),-8.87%,"29.1 µM [falling, single point]",
Cc1occc1-c1nnc(SCC(=O)Nc2c(F)cccc2F)n1C,48.5%,"23.1 µM [rising, partial curve]","16.4 µM [rising, single point]"
O=C(CC(c1ccccc1)c1ccccc1O)NCCN1CCOCC1 (stereo not drawn),-1.89%,"16.4 µM [falling, partial curve]",
COCCN(C(=O)c1csnn1)C(C(=O)NC(C)(C)C)c1cccc(OC)c1 (stereo not drawn),-143%,,"29.1 µM [falling, single point]"
CCc1cc(=O)oc2c3c(cc(OCC(=O)NCc4ccccn4)c12)OC(C)(C)CC3,0.291%,"18.4 µM [falling, single point]",
Cc1nc2ccc(NS(=O)(=O)c3ccc4c(c3)OCCO4)cc2s1,-40.3%,"29.1 µM [falling, single point]","18.4 µM [falling, partial curve, poor fit]"
CCn1c(CSc2ncccn2)nnc1SCC(=O)N1CCc2ccccc21,0.0277%,"1.84 µM [rising, single point]",
Cc1ccc2c(c1)cc1c(=O)n(CC(=O)N3CCCC3)nc(C)n12,-2.31%,"0.116 µM [rising, partial curve, poor fit]",
CCc1ccc2c(c1)C1(NN=C(c3cccc4ccccc34)S1)C(=O)N2 (stereo not drawn),-53.5%,"29.1 µM [falling, single point]","29.1 µM [falling, single point]"
CC(C)(C#CC(O)(c1ccccc1)c1ccccc1)N1CCCCC1,-23.4%,"0.058 µM [falling, full curve, poor fit]",
Cn1c(CCC(=O)OCC(=O)NCc2ccccc2Cl)nc(=O)c2ccccc21,19.7%,"4.11 µM [rising, full curve]",
O=C(OCC#CCSc1nnc(-c2ccncc2)o1)c1sc2ccccc2c1Cl,46.1%,,"29.1 µM [rising, single point]"
Cc1nc2cc(N)ccc2n1-c1ccccc1,,,"0.184 µM [rising, full curve]"
CCOc1ccccc1N(CC(=O)Nc1ccccc1C(=O)NCc1ccco1)S(C)(=O)=O,-5.73%,"3.26 µM [rising, partial curve]",
CCOc1ccc(N=Nc2cc(C(C)C)ccc2O)cc1,-70%,"23.1 µM [falling, partial curve, poor fit]","25.9 µM [falling, single point]"

SMILES,cell number change,AC50 [1],AC50 [2]
CC(C)Oc1ccccc1-c1cc(C(=O)N/N=C/c2cccnc2)c2ccccc2n1,-26.9%,,"0.651 µM [falling, full curve, poor fit]"
Cc1ccc(S(=O)(=O)Nc2nc3ccccc3nc2NCc2ccco2)cc1C,-30.3%,"0.13 µM [falling, full curve, poor fit]","0.731 µM [falling, partial curve]"
CCC(=O)c1ccc(OCC(=O)Nc2cccc(S(=O)(=O)N3CCCCCC3)c2)cc1,53%,,"6.51 µM [rising, partial curve, poor fit]"
Nc1nnnn1N=C1CCCCC1,17.3%,,"0.00411 µM [rising, full curve, poor fit]"
Cc1ccc(S(=O)(=O)c2c(N)n(CCN3CCOCC3)c3nc4ccccc4nc23)cc1C,-2.93%,,
COc1cccc(OC)c1C(=O)Nc1cccc(-c2ccc(N3CCOCC3)nn2)c1,-56.6%,,"23.1 µM [falling, partial curve]"
O=C1COc2ccc(N3C(=O)C=CC3=O)cc2N1,-60.5%,"6.51 µM [falling, partial curve, poor fit]","6.51 µM [falling, single point]"
CC(=O)c1cn(CC(=O)Nc2ccc(C)cc2C)c2ccccc12,-33.5%,"9.2 µM [falling, partial curve]","6.51 µM [falling, full curve, poor fit]"
COc1ccc(Oc2c(-c3ccc(O)cc3O)n[nH]c2C)cc1,61.2%,"1.84 µM [rising, single point]","5.8 µM [rising, partial curve]"
O=C(NCCNCc1ccc(F)cc1)c1ccco1,-0.827%,"0.731 µM [falling, full curve]",
CC(=O)OCC(=O)c1c[nH]c2ccccc12,0.397%,"1.03 µM [falling, partial curve, poor fit]",
Cc1nsc(N)c1C(=O)O,-27.8%,"6.51 µM [falling, full curve]",
CC(=O)c1c(C)oc2ccc(N(C(C)=O)S(=O)(=O)c3ccc(Cl)c([N+](=O)[O-])c3)cc12,-39.6%,"5.17 µM [falling, full curve]","29.1 µM [falling, single point]"
O=C(C[n+]1cc(-c2ccc(Cl)c(Cl)c2)n2c1CCC2)OCc1ccccc1,,"20.6 µM [rising, partial curve]","0.259 µM [rising, full curve]"
COc1ccccc1Nc1nc(C)cc(C)c1C(N)=O,5.98%,"2.31 µM [rising, single point]",
COc1cc(CNCCc2ccc(S(N)(=O)=O)cc2)ccc1OCC(=O)NC1CCCCC1,138%,"0.58 µM [rising, single point]","29.1 µM [rising, single point]"
O=C(CSc1n[nH]c(-c2ccncc2)n1)Nc1ccccc1C(F)(F)F,18.4%,,
CCOC(=O)c1ccccc1NC(=O)C1=COCCO1,-22.4%,"0.731 µM [rising, single point]",
O=C(CCCCCN1C(=O)[C@@H]2Cc3ccccc3CN2C1=O)N[C@@H](Cc1ccc(O)cc1)C(=O)O,0.872%,,
